Source: the supplement of paper PMC3334620
Over roughly 33,000 sequences, “E-score (-0.5 to 0.5)” has its median near -0.0034; the highest 2% begin near 0.25. The list shows a part of the results.

molecular target: T1, Yap3 (UniProt P38749); experiment: PBM E-score (8-mer binding enrichment) (E-score (-0.5 to 0.5)); higher = stronger / more preferred TF binding; details: protein concentration: 100 nM; construct: GST-full length
T1 sequence: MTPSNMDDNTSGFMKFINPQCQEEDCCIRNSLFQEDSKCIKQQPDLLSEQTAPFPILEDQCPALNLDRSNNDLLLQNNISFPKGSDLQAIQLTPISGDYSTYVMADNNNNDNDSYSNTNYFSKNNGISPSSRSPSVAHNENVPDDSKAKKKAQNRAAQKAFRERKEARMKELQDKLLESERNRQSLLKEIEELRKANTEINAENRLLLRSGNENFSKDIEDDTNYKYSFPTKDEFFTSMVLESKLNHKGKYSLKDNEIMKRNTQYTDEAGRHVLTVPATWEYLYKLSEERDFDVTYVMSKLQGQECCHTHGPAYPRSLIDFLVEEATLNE
Summary of the method: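 Yeast transcription factors carrying a GST tag, as full-length proteins or DNA-binding domains, were produced by PURExpress in vitro transcription/translation. About 100-200 nM protein was applied to universal all-10-mer Agilent arrays, double-stranded by primer extension on fresh or once-stripped slides. Bound protein was detected with fluorescent anti-GST, and scans were normalised with masliner. The Universal PBM Analysis Suite gave each ungapped eight-base word, pooled with its reverse complement, an E-score, a modified Wilcoxon-Mann-Whitney statistic.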

Row | Sequence | PBM E-score
1 | AGACATGG | 0.0779
2 | CATGCGCC | 0.0574
3 | AATTGCAA | 0.183
4 | CCCAGCGC | -0.145
5 | ATGACGTC | 0.221
6 | AATTGATG | 0.215
7 | AGTTCATG | 0.18
8 | CAATCAGC | -0.059
9 | AACAGGTT | 0.0368
10 | ATATTGAT | 0.205
11 | AATCCCAA | 0.0459
12 | ATCAAACA | 0.192
13 | TATTACGA | 0.326
14 | CCTCGTTC | -0.0985
15 | ACTGGCAT | -0.151
16 | CAATTATG | 0.214
17 | ACGCATAT | 0.175
18 | CACACCTA | -0.0208
19 | CGGGGCCA | -0.285
20 | ATTAGACA | -0.021
21 | ACGGAGAT | -0.0531
22 | AGCCGATG | -0.0561

Row | Sequence | PBM E-score
23 | AAATTAAC | 0.136
24 | AGGTACTG | -0.112
25 | GGGACCAC | -0.126
26 | TTTCGAAA | 0.071
27 | ACCGAATC | -0.00408
28 | CTGCCACC | -0.272
29 | ACAAGCGC | 0.0537
30 | CTGTTCTA | 0.0132
31 | CTCGGAAC | -0.116
32 | ATCGTGTA | -0.00618
33 | ACGCATAG | 0.0069
34 | TGTAGACA | 0.101
35 | CGGCTCAG | -0.0325
36 | CATGATAA | 0.255
37 | CAGTCGCA | -0.256
38 | GCATGTCC | -0.162
39 | ACGCATCT | 0.106
40 | AGCGCGGC | 0.0106
41 | CGGGTAAA | 0.163
42 | CCCGGGTC | -0.195
43 | GATCTGAC | 0.00948
44 | CGATTAAA | 0.191

Another view of part of the listing above:
Row,Sequence,PBM E-score
32,ATCGTGTA,-0.00618
33,ACGCATAG,0.0069
34,TGTAGACA,0.101
35,CGGCTCAG,-0.0325

The results go on:

Row | Sequence | PBM E-score
45 | ATTTGGTA | 0.235
46 | CTACTCTA | 0.148
47 | AAGTGGTA | 0.0357
48 | ATTTTTGA | 0.15
49 | ACCGAGGG | -0.332
50 | AGGGCTCG | -0.228
51 | AAGAAATG | 0.137
52 | CCTCACCA | -0.0697
53 | ATATGCAA | 0.073
54 | ATATTATG | 0.399
55 | GTCGCTAA | -0.00825
56 | ACTTAATG | 0.218
57 | CTGGTCCC | -0.3
58 | CCAACGAG | -0.101
59 | AACTATTA | 0.252
60 | GATTAATC | 0.117
61 | CTATTGAG | 0.112
62 | AGCGTTCC | -0.0165
63 | CATCCTCG | -0.0766
64 | CAGCGATA | -0.0172
65 | GATCCAGA | 0.0382
66 | AGATAATC | 0.0687

Row | Sequence | PBM E-score
67 | TCCATAAA | 0.114
68 | CGATCCTC | -0.153
69 | CCCTATAA | -0.138
70 | ACGTACTC | 0.0983
71 | GTCTCCAC | -0.0603
72 | CTCTGGTC | -0.0926
73 | AAGGCAGA | -0.0435
74 | CCACGCCG | -0.124
75 | AATGGTTA | 0.0125
76 | ATCGTGCA | 0.0632
77 | AGCCATAT | 0.0814
78 | ATCGAGAC | -0.145
79 | CCAAGGAG | -0.0467
80 | GCGATCTA | 0.0808
81 | CGTGTGAA | 0.0802
82 | CTGGACTA | -0.11
83 | CAGGTTCA | -0.156
84 | CAACACGG | -0.041
85 | CTTCGCGC | 0.135
86 | CTCCTCGA | -0.115
